PubChem BioAssay AID1508600 (Functional Genomics Laboratory (NCATS/FGL), 2020)
Among all 53,000 sequences or so, about 3,700 (7%) were called active.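 The calls were made as follows: active = gene knockdowns whose robust z-score for IL-1 alpha signal is at least 2 or at most -2, so actives lie on both sides; inactive = the rest.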 This is one part of the list.

Test: Components of the Cytosolic LPS Sensing Pathway: Gene Identification via Genome-wide siRNA Screen;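 also: robust z of the log signal after scaling to non-targeting control siRNA wells of the plate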
Conditions: RAW264.7 macrophages, IL-1a HTRF, actives lie on both sides, screened at 100 nM (by protocol), cells primed 5 h with Pam3CSK4 first
In short: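 Knockdown: 100 nM siRNA, 48h, RAW264.7. Stimulation: Pam3CSK4 5 h, then LipidA via TransIT-TKO 24 h. Output: supernatant IL-1a HTRF, negative-control-normalized, log robust z-score; viability by CellTiter-Glo.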

Sequence	z-score
CCUGUCCAGGGUUUGACCATT against Man2c1	inactive: -1.12
CCCUGCUUACGAUUGAUAGTT against Ccr1l1	inactive: 0.208
GGAAGAACAGAGGCAGAAGTT against Trpv3	inactive: -0.629
GCGUGAAUCCGAUCCAACUTT against Spag5	inactive: -1.27
GCUAAUAGGGUGCUUUAAUTT against Rab33b	inactive: 0.91
GGGAGACAUCCCGAUACAGTT against Mlf2	inactive: 1.19
GCUAAGUUUCACCCAAAGGTT against Dennd2c	inactive: 1.42
AUAUGUCUGUUUCUGCGAATT against Vmn1r189	inactive: -0.127
GGUCCUACAGUCCAUAGGUTT against Fstl4	inactive: 0.667
CGCAGACAGUUUGAGGCUGTT against Gpbp1	active: -2.34
GCUUUGGAGAGUCAGUAAATT against Mdn1	inactive: 0.312
GGGAAAACCAUACAAAAUATT against Olfr228	inactive: -0.525
CCUGUACUGAACUACUUGATT against Kctd5	inactive: 0.0535
GGAGGCAGAGAAGAUGAAATT against Pacsin3	inactive: -0.282
CCCGCUCCUGUUUAGAUGUTT against Lsg1	inactive: 0.651
GGUAUUUCACUGGUUACGUTT against B3galt1	inactive: 0.959
GGACUUCUACGACUUCAAGTT against Gpx7	inactive: 0.747
CCGUGGAUUAUUUUCAACGTT against Hcn1	inactive: 0.299
CCAACAAAUUCAAUCAGGCTT against Nrip3	inactive: -0.0229
GGAAAGGAUACUAUGAGGATT against Ttc29	inactive: -1.25
GGGAGCUGCUAAAAUAAACTT against Mtcp1	inactive: 0.278
GGAGAACAUGUUGAAGUAUTT against Atp8a1	inactive: -0.532
GGAUGAUGUGAUGAAGAUCTT against Fgfr4	inactive: -0.0955

Sequence	z-score
GCAACAAGCUGGUUGGCUUTT against Ccin	inactive: 0.414
GCCAAAUACUUUUUUACCCTT against Slc38a2	inactive: 0.682
CAACACUGCCUCUUGCACATT against Vmn1r213	inactive: -0.257
GGCAUCUCUAUCAAGUUGCTT against Rps17	inactive: 0.534
GCCAGAAUGGAGUUACACCTT against Arl4d	inactive: -0.753
GGCCUUUUUUCUAUAUCUATT against Galnt3	inactive: -0.637
GGCAUUGAAUUAAAGAUACTT against Myct1	inactive: -1.06
GGAGCCUUUCUAGCUACCUTT against Dlk2	inactive: 0.00631
GGUCGAGUGCAAGUUGAAGTT against Taf13	inactive: 1.85
GGUGCUGUCAUUUGAAUUCTT against Atp13a1	inactive: 0.266
GGUCAAGUUCACCAAGAUATT against Aldh1a3	inactive: -1.16
GGAUGAAAGAGCUAUUCUUTT against Cnot8	inactive: -0.00551
GGCAAACUCAUCCAUGUGCTT against Fabp3	inactive: -1.53
GGAUCCAGAUACUCCCAAGTT against Camp	inactive: -1.08
GGGCAAGCCGGUUUCAUUUTT against Col16a1	inactive: 1.05
GGCCUUGGGAAGGAAAGAGTT against Mospd1	inactive: 0.222
GGUGGAGAAAUCUGCUAAUTT against Lta4h	inactive: 1.99
GGAGAAUGACACCAGGUCUTT against Arc	inactive: -0.124
GGUCAGAUGUUCUGGAAAATT against Ctsj	inactive: 1.12
GGUGAAGAGCAUCAUAACCTT against Fabp4	inactive: -1.75
GCCUUUUCAUUGCACCUCCTT against Cdc42se2	inactive: 0.384
GCCAAUCUGAAAGGAUAUUTT against Tpst2	inactive: 0.96
GGACAUGAUGAGUGACCUGTT against Elmo1	inactive: -0.135

Sequence	z-score
CCUCCUACAUGUUCACAUUTT against Olfr1367	inactive: -0.626
GCAUGUAGCCCUAAUUUUGTT against Dnajc14	inactive: -0.583
GGGCCUAAAAGGGUUAAGGTT against Prr14l	inactive: 0.827
GGUGUCUCUCUAUGAUUUATT against Otoa	inactive: 1.76
CCCGAGAAUGACUAUGAAGTT against Grid2ip	inactive: -0.309
GGUAUAAAAGGUUGCCAAATT against Efnb2	inactive: -1.71
GGUUUAGCAUCGUCCUAUATT against Crmp1	inactive: -0.495
CCAUGGAAACUGAAUUCUGTT against Ears2	inactive: -0.398
AAGACCUUCCACAUGUUAATT against Fam169b	inactive: 0.501
GCUUCAGGCAAGGUUUAAATT against Ppp1r2	inactive: 0.571
GGAAAAAGAUCCAGAUUUGTT against Adprh	inactive: 1.21
GCCGAUCACACAGUGGAAATT against Spin2c	inactive: 0.024
GGGUAAUACUCUUUGGUGCTT against Olfr594	inactive: 0.34
CCCUGUAUAUUGCAUUUCCTT against Pcdhb21	inactive: 0.198
GGUGGAAGAAGAAAUUGUCTT against Tpd52l2	active: -2
GCCUUCUUAACUUCAUCACTT against Taar5	inactive: 1.16
CCUGUAUUAAACAGGGUUCTT against Zfp60	inactive: -0.883
UGCUGGUGCCUGAUGACCATT against Defa1	inactive: -0.154
CGACUUGACAUCGUCAGUATT against Bloc1s4	inactive: 1.03
CCUUGUGACUCUAAGAAUATT against Bcl2l14	inactive: -0.0665
CCUGAAGCGGAAGUGCAAATT against Wnt10b	inactive: 0.784
GAGUGUGAGGACUCAGACUTT against Gpbp1l1	inactive: -0.896

Part of the list above, bar-delimited:
Sequence | z-score
CCUCCUACAUGUUCACAUUTT against Olfr1367 | inactive: -0.626
GCAUGUAGCCCUAAUUUUGTT against Dnajc14 | inactive: -0.583
GGGCCUAAAAGGGUUAAGGTT against Prr14l | inactive: 0.827
CCCGAGAAUGACUAUGAAGTT against Grid2ip | inactive: -0.309
GGUAUAAAAGGUUGCCAAATT against Efnb2 | inactive: -1.71
GGUUUAGCAUCGUCCUAUATT against Crmp1 | inactive: -0.495
CCAUGGAAACUGAAUUCUGTT against Ears2 | inactive: -0.398
AAGACCUUCCACAUGUUAATT against Fam169b | inactive: 0.501
GCUUCAGGCAAGGUUUAAATT against Ppp1r2 | inactive: 0.571
GGAAAAAGAUCCAGAUUUGTT against Adprh | inactive: 1.21
GCCGAUCACACAGUGGAAATT against Spin2c | inactive: 0.024
CCCUGUAUAUUGCAUUUCCTT against Pcdhb21 | inactive: 0.198
GCCUUCUUAACUUCAUCACTT against Taar5 | inactive: 1.16
CCUGUAUUAAACAGGGUUCTT against Zfp60 | inactive: -0.883
CCUUGUGACUCUAAGAAUATT against Bcl2l14 | inactive: -0.0665
CCUGAAGCGGAAGUGCAAATT against Wnt10b | inactive: 0.784
